From the supplement of paper PMC4604168 (melanoma cell lines)
This is one part of the list. Repeats are few or missing, and single values can be far off.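 Cells were imaged in 1,536-well plates, and nuclei stained with an antibody against cleaved PARP were counted against all DNA-stained nuclei to give the apoptosis fraction. Screening doses were chosen to leave most cells alive, and resting and induced cleaved-PARP levels differ strongly between cell lines.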

Experiments:
Assay in all cases: cleaved PARP positive nuclei fraction relative to DMSO control; melanoma cells; higher = more apoptosis
Conditions in all cases: library dose: low library concentration; 72 h
501Mel = tested on: 501Mel
A101D = tested on: A101D
A2058 = tested on: A2058
A375 = tested on: A375
C32 = tested on: C32
CBRC008 = tested on: CBRC008 (line from a melanoma biopsy)
CBRC013 = tested on: CBRC013 (line from a melanoma biopsy)
CBRC014 = tested on: CBRC014 (line from a melanoma biopsy)
CBRC016 = tested on: CBRC016 (line from a melanoma biopsy)
CBRC017 = tested on: CBRC017 (line from a melanoma biopsy)
COLO792 = tested on: COLO792
COLO800 = tested on: COLO800
COLO829 = tested on: COLO829
G361 = tested on: G361
IPC-298 = tested on: IPC-298
IST-MEL1 = tested on: IST-MEL1
LB2518-MEL = tested on: LB2518-MEL
LOXIMVI = tested on: LOXIMVI
MEL-HO = tested on: MEL-HO

| SMILES | cleaved PARP positive nuclei fraction (501Mel) [%] | cleaved PARP positive nuclei fraction (A101D) [%] | cleaved PARP positive nuclei fraction (A2058) [%] | cleaved PARP positive nuclei fraction (A375) [%] | cleaved PARP positive nuclei fraction (C32) [%] | cleaved PARP positive nuclei fraction (CBRC008) [%] | cleaved PARP positive nuclei fraction (CBRC013) [%] | cleaved PARP positive nuclei fraction (CBRC014) [%] | cleaved PARP positive nuclei fraction (CBRC016) [%] | cleaved PARP positive nuclei fraction (CBRC017) [%] | cleaved PARP positive nuclei fraction (COLO792) [%] | cleaved PARP positive nuclei fraction (COLO800) [%] | cleaved PARP positive nuclei fraction (COLO829) [%] | cleaved PARP positive nuclei fraction (G361) [%] | cleaved PARP positive nuclei fraction (IPC-298) [%] | cleaved PARP positive nuclei fraction (IST-MEL1) [%] | cleaved PARP positive nuclei fraction (LB2518-MEL) [%] | cleaved PARP positive nuclei fraction (LOXIMVI) [%] | cleaved PARP positive nuclei fraction (MEL-HO) [%] |
| --- | --- | --- | --- | --- | --- | --- | --- | --- | --- | --- | --- | --- | --- | --- | --- | --- | --- | --- | --- |
| COc1cc(Nc2ncc(F)c(Nc3ccc4c(n3)NC(=O)C(C)(C)O4)n2)cc(OC)c1OC [Tamatinib] + NCC(=O)Nc1ccc(-n2nc(C(F)(F)F)cc2-c2ccc3c(ccc4ccccc43)c2)cc1 [OSU03012] (first compound 0.4 µM, partner dose 1 µM) | 101 | 109 | 82.7 | 2950 | 40.8 | 529 | 249 | 321 | 147 | 99.1 | 429 | 329 | 230 | 75.3 | 108 | 459 | 149 | 951 | 323 |
| Nc1cccc2c1CN(C1CCC(=O)NC1=O)C2=O (stereo not drawn) [lenalidomide] + CN(NC(=O)CC(=O)NN(C)C(=S)c1ccccc1)C(=S)c1ccccc1 [STA4783] (first compound 1 µM, partner dose 0.006 µM) | 341 | 105 | 96.7 | 2210 | 139 | 907 | 118 | 636 | 156 | 154 | 219 | 77.4 | 191 | 177 | 181 | 209 | 138 | 199 | 70.9 |
| CC1(C)NC(=O)N(c2ccc([N+](=O)[O-])c(C(F)(F)F)c2)C1=O [nilutamide] + O=C(Nc1cccc(Cl)c1)Nc1ncc(CCNc2ncnc3ccsc23)s1 [SNS314] (first compound 1 µM, partner dose 0.0008 µM) | 86 | 44.4 | 59.1 | 22.9 | 117 | 90.3 | 109 | 82.1 | 75.3 | 90.5 | 78.9 | 81.1 | 50 | 104 | 120 | 99.1 | 99.9 | 44.4 | 115 |
| C[C@]1(c2nc3c(C(N)=O)cccc3[nH]2)CCCN1 [Veliparib] + CC(C)(C)c1cnc(CSc2cnc(NC(=O)C3CCNCC3)s2)o1 [SNS-032] (first compound 1.4 µM, partner dose 0.01 µM) | 113 | 93.2 | 111 | 38.9 | 196 | 102 | 108 | 77.9 | 105 | 294 | 128 | 123 | 178 | 138 | 91.3 | 101 | 105 | 88.8 | 140 |
| Cn1c(Nc2ccc(C(F)(F)F)cc2)nc2cc(Oc3ccnc(-c4ncc(C(F)(F)F)[nH]4)c3)ccc21 + Cn1cncc1[C@@](N)(c1ccc(Cl)cc1)c1ccc2c(c1)c(-c1cccc(Cl)c1)cc(=O)n2C [tipifarnib] (first compound 0.08 µM, partner dose 0.01 µM) | 552 | 137 | 246 | 1830 | 126 | 190 | 112 | 108 | 237 | 154 | 487 | 84.9 | 79.4 | 212 | 120 | 360 | 246 | 139 | 171 |
| Cc1cc(N2CCOCC2)cc2[nH]c(-c3c(NC[C@@H](O)c4cccc(Cl)c4)cc[nH]c3=O)nc12 + O=C(O)c1ccc(-c2c[nH]c3ncc(-c4ccccc4)cc23)cc1C1CCCC1 [GSK650394] (first compound 0.2 µM, partner dose 0.16 µM) | 110 | 106 | 95.3 | 283 | 160 | 414 | 143 | 111 | 149 | 82.8 | 173 | 245 | 78.2 | 312 | 106 | 155 | 189 | 101 | 70.8 |
| CC1(C)NC(=O)N(c2ccc([N+](=O)[O-])c(C(F)(F)F)c2)C1=O [nilutamide] + COc1cc2c(Oc3ccc4[nH]c(C)cc4c3F)ncnc2cc1OCCCN1CCCC1 [cediranib] (first compound 1 µM, partner dose 0.4 µM) | 139 | 76.7 | 130 | 158 | 132 | 81.9 | 86.2 | 81.6 | 45.9 | 63.5 | 126 | 60.1 | 114 | 149 | 94.2 | 56.4 | 62.6 | 29.1 | 69.5 |
| Cn1c(Nc2ccc(C(F)(F)F)cc2)nc2cc(Oc3ccnc(-c4ncc(C(F)(F)F)[nH]4)c3)ccc21 + O=C(CCCCCCC(=O)Nc1ccccc1)NO [vorinostat] (first compound 0.08 µM, partner dose 0.08 µM) | 169 | 137 | 112 | 176 | 148 | 156 | 138 | 90.3 | 245 | 113 | 262 | 65.5 | 96.9 | 166 | 168 | 70 | 577 | 49.1 | 92.8 |
| C#Cc1cccc(Nc2ncnc3cc(OCCOC)c(OCCOC)cc23)c1 [erlotinib] + Cc1cc(N2CCOCC2)cc2[nH]c(-c3c(NC[C@@H](O)c4cccc(Cl)c4)cc[nH]c3=O)nc12 [BMS536924] (first compound 0.8 µM, partner dose 0.2 µM) | 96.9 | 187 | 36.9 | 118 | 99.5 | 312 | 227 | 93.1 | 111 | 98.4 | 194 | 59.6 | 19.9 | 97.6 | 105 | 99.4 | 211 | 196 | 83 |
| C=CCn1c(=O)c2cnc(Nc3ccc(N4CCN(C)CC4)cc3)nc2n1-c1cccc(C(C)(C)O)n1 + O=C(Nc1cccc(Cl)c1)Nc1ncc(CCNc2ncnc3ccsc23)s1 [SNS314] (first compound 0.02 µM, partner dose 0.0008 µM) | 172 | 49.7 | 107 | 228 | 137 | 71.9 | 110 | 119 | 58.8 | 100 | 79.4 | 164 | 76 | 93.5 | 63.2 | 65.6 | 114 | 272 | 127 |
| OCc1c[nH]c2ccccc12 [Indole-3-carbinol] + Cn1cncc1[C@@](N)(c1ccc(Cl)cc1)c1ccc2c(c1)c(-c1cccc(Cl)c1)cc(=O)n2C [tipifarnib] (first compound 0.8 µM, partner dose 0.01 µM) | 91.6 | 93.2 | 77.7 | 80.2 | 47.9 | 159 | 68.5 | 95.9 | 144 | 108 | 155 | 70.1 | 112 | 109 | 92.3 | 70.7 | 120 | 153 | 111 |
| Nc1cccc2c1CN(C1CCC(=O)NC1=O)C2=O (stereo not drawn) [lenalidomide] + Cn1cncc1[C@@](N)(c1ccc(Cl)cc1)c1ccc2c(c1)c(-c1cccc(Cl)c1)cc(=O)n2C [tipifarnib] (first compound 1 µM, partner dose 0.01 µM) | 82.6 | 93.8 | 76.5 | 75 | 51.6 | 62.6 | 154 | 94.9 | 176 | 97.8 | 78.1 | 88.1 | 107 | 86.1 | 46 | 96.9 | 101 | 42.2 | 133 |
| Cn1nnc2c(C(N)=O)ncn2c1=O [temozolomide] + CN(C)S(=O)(=O)c1ccc2c(c1)/C(=C/c1cc3c([nH]1)CCCC3)C(=O)N2 [SU6656] (first compound 2 µM, partner dose 0.4 µM) | 83.5 | 100 | 126 | 81.5 | 149 | 121 | 89.4 | 118 | 191 | 160 | 92.3 | 87.4 | 155 | 149 | 105 | 107 | 48.7 | 42.4 | 73.1 |
| Cn1c(Nc2ccc(C(F)(F)F)cc2)nc2cc(Oc3ccnc(-c4ncc(C(F)(F)F)[nH]4)c3)ccc21 + NC(=O)Nc1cc(-c2cccc(F)c2)sc1C(=O)N[C@H]1CCCNC1 [AZD7762] (first compound 0.08 µM, partner dose 0.02 µM) | 50.1 | 141 | 163 | 446 | 346 | 144 | 35.3 | 110 | 41.5 | 137 | 181 | 134 | 107 | 124 | 64.4 | 100 | 188 | 45.3 | 39.9 |
| CC(=O)c1c(C)c2cnc(Nc3ccc(N4CCNCC4)cn3)nc2n(C2CCCC2)c1=O [palbociclib] + O=C(CCCCCCC(=O)Nc1ccccc1)NO [vorinostat] (first compound 0.04 µM, partner dose 0.08 µM) | 129 | 89.7 | 31.9 | 110 | 64.7 | 134 | 65.3 | 120 | 123 | 125 | 35.6 | 33.3 | 50.1 | 53.9 | 49.6 | 54.7 | 57.2 | 30.8 | 109 |
| C[C@]1(c2nc3c(C(N)=O)cccc3[nH]2)CCCN1 [Veliparib] + CO[C@@H]1[C@H](N(C)C(=O)c2ccccc2)C[C@H]2O[C@]1(C)n1c3ccccc3c3c4c(c5c6ccccc6n2c5c31)C(=O)NC4 [Midostaurin] (first compound 1.4 µM, partner dose 0.08 µM) | 66.1 | 168 | 120 | 207 | 165 | 361 | 91.4 | 102 | 231 | 138 | 101 | 204 | 106 | 118 | 45.4 | 126 | 201 | 43.3 | 32.3 |
| CC(=O)c1c(C)c2cnc(Nc3ccc(N4CCNCC4)cn3)nc2n(C2CCCC2)c1=O [palbociclib] + OCCn1cc(-c2cnc3nnn(Cc4ccc5ncccc5c4)c3n2)cn1 [PF04217903] (first compound 0.04 µM, partner dose 1 µM) | 265 | 96.6 | 157 | 237 | 121 | 174 | 112 | 85 | 116 | 138 | 157 | 39.3 | 199 | 84.8 | 52.8 | 122 | 118 | 244 | 71.9 |
